# Results: PubChem BioAssay AID540256 (National Center for Advancing Translational Sciences (NCATS), 2011)
# Screen size: about 300,000 compounds; about 3,700 (1.2%) were called active. The shares of active, inactive and inconclusive entries below differ from those in the screen. The call rests on the fitted dose curve; tested in HEK293 cells. Potencies of inconclusive entries are doubtful fits and often do not repeat.
# Experiment: qHTS for Inhibitors of binding or entry into cells for Lassa Virus; further: nearly all actives have a fitted effect of over 50% in size
# Settings: Lassa virus pseudotype entry inhibition, cell reporter; activity change, negative = inhibition: at 37.9 µM (top of the series) unless noted
# On the % scale 0 is the no-effect control and ±100 the full control effect; potency means the concentration at half of the fitted maximal effect.
Compound,Potency,"activity change, negative = inhibition"
O=Cc1cc2ccccc2nc1SCc1ccc(Cl)cc1,active: 10 µM,–
CCc1sc(C(=O)N2CCc3ccccc32)cc1C,"inconclusive: 0.73 µM [activator, partial curve, poor fit]",–
COc1ccc(N2CCN(C(=O)CC(C)S(=O)(=O)c3ccc4c(c3)NC(=O)CO4)CC2)cc1 (configuration not stated),"inconclusive: 35.5 µM [inhibitor, single point]",–
C=CCN(CC=C)S(=O)(=O)c1ccc(NC(=S)NC(=O)C2CC2)cc1,"inconclusive: 10 µM [inhibitor, partial curve, poor fit]",–
Cc1c(Cl)cccc1-n1ncc(C(=O)NC2CCCC2)c1C1CCN(C(=O)OC(C)(C)C)CC1,"inconclusive: 35.5 µM [activator, single point]",–
Cc1ccc(C(C)C)c(OCC(=O)Nc2cccc(S(=O)(=O)NC3=NCCCCC3)c2)c1,"inconclusive: 25.1 µM [inhibitor, single point]",–
CCOc1cc(C2CC(=O)c3c(ccc4ccccc34)N2)ccc1O (configuration not stated),"inconclusive: 0.708 µM [inhibitor, partial curve, poor fit]",–
COc1ccc(N2C(=O)NC(=O)C(CCc3ccncc3)(CCc3ccncc3)C2=O)cc1,"inconclusive: 2.91 µM [inhibitor, full curve]",–
COc1ccccc1/C=C/C=N/NC(=O)Cc1cccs1,active: 0.116 µM,–
Cc1ccc(-c2nc(-c3ccncc3)no2)cc1,"inconclusive: 22.4 µM [inhibitor, single point]",–
CC(=O)Nc1ccc(NC(=O)C(C)OC(=O)/C=C/c2ccc3c(c2)OCO3)cc1 (configuration not stated),"inconclusive: 22.4 µM [inhibitor, single point]",–
CCC(C)(C)NC(=O)C(OC(=O)c1cc2sccc2n1C)c1ccc(OC)cc1 (configuration not stated),"inconclusive: 0.0411 µM [inhibitor, full curve, poor fit]",–
CC(C)C(OC(=O)CCC(=O)Nc1nccs1)C(=O)NC1CCCCC1 (configuration not stated),–,inactive: 11.6%
O=C(O)c1cn(Cc2ccccc2)c2ccccc2c1=O,"inconclusive: 3.55 µM [inhibitor, single point]",–
CC1CCN(Cc2c(C(=O)N/N=C/c3ccc(C(C)C)cc3)nnn2-c2nonc2N)CC1,"inconclusive: 5.62 µM [inhibitor, single point]",–
CCOc1ccc(S(=O)(=O)Nc2cc3c(C(=O)OCc4ccccc4)c(C)oc3c3ccccc23)cc1,"inconclusive: 7.08 µM [inhibitor, partial curve, poor fit]",–
C/C(=N\OCc1ccc(C#N)cc1)c1cc2ccccc2o1,–,inactive: -0.497% [at 46.1 µM]
CNC(=O)c1sc(N2N=C3/C(=C\c4ccccc4)CCCC3C2c2ccccc2)nc1C (configuration not stated),"inconclusive: 14.1 µM [inhibitor, partial curve, poor fit]",–
COC(=O)c1ccc(OC)c(CN2CCCN(Cc3cc(C)ccc3C)S2(=O)=O)c1,"inconclusive: 11.2 µM [inhibitor, single point]",–
C/C(Cn1cnc([N+](=O)[O-])n1)=N\NC(=O)c1ccc(O)cc1O,–,inactive: 26.8%
CC(Cc1ccccc1)NC(=O)/C=C/c1ccc(Cl)cc1 (configuration not stated),"inconclusive: 22.4 µM [inhibitor, single point]",–

Compound,Potency,"activity change, negative = inhibition"
N/C(=N\OC(=O)CC1CCCCC1)c1ccccn1,"inconclusive: 4.61 µM [activator, full curve, poor fit]",–
Fc1ccccc1-c1nc(NC2CCCC2)c2ccccc2n1,"inconclusive: 6.31 µM [inhibitor, partial curve, poor fit]",–
O=C(/C=C/c1cccc(F)c1)Nc1cc(S(=O)(=O)N2CCOCC2)ccc1Cl,"inconclusive: 3.98 µM [inhibitor, full curve]",–
CC(C)(C)OC(=O)N1CCC(c2c(C(=O)N3CCN(C4CCCCC4)CC3)cnn2-c2cccc(Cl)c2)CC1,"inconclusive: 1.78 µM [inhibitor, full curve, poor fit]",–
Cc1oc2ncn(C)c(=O)c2c1C(=O)N(C)c1ccccc1F,"inconclusive: 3.55 µM [activator, full curve, poor fit]",–
CCOC(=O)c1sc(NC(=O)CSc2nncn2C)nc1C,–,inactive: -11.4%
CCc1sc(C(=O)Nc2cc(Cl)ccc2N2CCCCC2)cc1C,–,inactive: 7.65%
COc1cccc(N/C(SC)=C(/C#N)C(N)=O)c1,"inconclusive: 29.1 µM [inhibitor, single point]",–
Cc1cc(F)ccc1S(=O)(=O)Nc1ccccc1C(=O)Nc1ccccc1-c1nc2ccccc2[nH]1,active: 11.2 µM,–
CCCCn1nc(C(=O)NC2CCCCCC2)c2ccccc2c1=O,–,inactive: -20.9%
CCc1ccc(-c2csc(NC(=O)C3CC(=O)N(c4ccc5c(c4)OCCO5)C3)n2)cc1 (configuration not stated),"inconclusive: 35.5 µM [inhibitor, single point]",–
CCOC(=O)c1cnc(Nc2nc3ccccc3o2)nc1CSc1nnc(C)s1,"inconclusive: 14.6 µM [inhibitor, partial curve, poor fit]",–
O=C(NCCc1ccc(F)cc1)C(=O)NCC(c1cccs1)S(=O)(=O)c1cccs1 (configuration not stated),"inconclusive: 11.2 µM [inhibitor, partial curve]",–
COc1ccc(NC(=O)Nc2cn(CC(C)C)c(=O)c3ccccc23)c(OC)c1,–,inactive: 14.4% [at 46.1 µM]
O=C1C2=C(Nc3ccccc3SC2c2c(F)cccc2Cl)c2ccccc21 (configuration not stated),–,inactive: 1.67% [at 46.1 µM]
Cc1ccccc1NC(=O)C1(C)Cc2ccccc2C(=O)O1 (configuration not stated),–,inactive: -2.34%
O=C(c1cc(-c2ccc(O)cc2)on1)N1CCCCCC1,"inconclusive: 35.5 µM [inhibitor, single point]",–
O=C(c1ccc(C(F)(F)F)cc1)C1CCCN(C(=O)CN2C(=O)CSC2=O)C1 (configuration not stated),"inconclusive: 8.91 µM [activator, partial curve, poor fit]",–
CN1CCc2cc(O)cc3c2[C@H]1Cc1ccc(O)c(O)c1-3,"inconclusive: 32.6 µM [inhibitor, partial curve, poor fit]",–
Cc1ccc(NC(=O)CSc2nnc(-c3ccccc3C)o2)cc1C,"inconclusive: 29.1 µM [activator, single point]",–
CC1=C(C(=O)Nc2ccc(C)cc2C)C(c2ccc(C(C)C)cc2)n2nc(C(F)(F)F)nc2N1 (configuration not stated),–,inactive: 6.8% [at 46.1 µM]

# Laid out differently: entries from further up.
Compound | Potency | activity change, negative = inhibition
O=Cc1cc2ccccc2nc1SCc1ccc(Cl)cc1 | active: 10 µM | –
COC(=O)c1ccc(OC)c(CN2CCCN(Cc3cc(C)ccc3C)S2(=O)=O)c1 | inconclusive: 11.2 µM [inhibitor, single point] | –
CCc1sc(C(=O)Nc2cc(Cl)ccc2N2CCCCC2)cc1C | – | inactive: 7.65%
